Results taken from publication PMC6193047.
These are yes or no findings as the source states them, for the method shown. Binding seen in cells or lysates may run through a third protein. Some results given as binding are weak or reduced against the parent protein; the word gives no strength. Where a sequence is shown, tags or fusion partners need not be part of it.

Molecular target: T1, 3Flag-tagged Nud1 (S. cerevisiae) (UniProt P32336)
T1 sequence: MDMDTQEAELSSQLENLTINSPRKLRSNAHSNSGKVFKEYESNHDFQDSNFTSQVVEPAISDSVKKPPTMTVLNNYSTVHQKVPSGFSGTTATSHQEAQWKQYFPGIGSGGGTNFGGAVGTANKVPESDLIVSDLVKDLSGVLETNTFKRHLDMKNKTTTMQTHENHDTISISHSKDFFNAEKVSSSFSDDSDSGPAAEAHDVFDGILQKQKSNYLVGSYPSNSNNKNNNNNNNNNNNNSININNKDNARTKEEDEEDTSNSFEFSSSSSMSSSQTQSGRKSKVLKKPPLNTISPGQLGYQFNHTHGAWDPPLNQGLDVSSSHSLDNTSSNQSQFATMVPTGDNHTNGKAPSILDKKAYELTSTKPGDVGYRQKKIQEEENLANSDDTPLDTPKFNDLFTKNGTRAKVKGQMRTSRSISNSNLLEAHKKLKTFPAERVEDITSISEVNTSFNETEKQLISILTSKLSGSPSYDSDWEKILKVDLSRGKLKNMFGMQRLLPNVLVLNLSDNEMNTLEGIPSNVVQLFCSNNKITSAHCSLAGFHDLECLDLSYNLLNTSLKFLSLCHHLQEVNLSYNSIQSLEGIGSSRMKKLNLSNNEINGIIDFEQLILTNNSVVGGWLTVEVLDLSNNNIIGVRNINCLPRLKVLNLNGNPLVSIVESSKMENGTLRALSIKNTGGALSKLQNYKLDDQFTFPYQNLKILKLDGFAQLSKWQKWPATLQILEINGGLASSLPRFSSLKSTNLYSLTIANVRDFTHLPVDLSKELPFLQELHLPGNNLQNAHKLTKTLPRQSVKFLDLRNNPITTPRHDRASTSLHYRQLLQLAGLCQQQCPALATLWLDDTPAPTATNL
Assay: co-IP; 3Flag-tagged Nud1 and 3HA-tagged Dma2 from yeast cells in anaphase; the method of the native co-IP is not described in the text shown

binding: binds
B1: 3HA-tagged Dma2 (enzyme, UniProt P53924 1-522)
chain: MYTPIPANTPAPTAPTSSMTSNSSSASNANTTSSSGINPRNRASGTPSNERARPASGISSFLNTFGIRQNSQTASSSAAPDQRLFGTTPSNSHMSVAMESIDTAPQQQEPRLHHPIQMPLSAQFHVHRNYQLPISISLTAPTTTDHQQSSAHNFEGNNVGNVQESLNQRQPNGTNNTTTSIISMAPAATTRNIVGGADGSTIVNNSQEMYKNLRHLIYAANQPNGTEILHLDLPATSAEESNNMFNVDEVTLKQRKDKHGLFSIRLTPFIDSSSTTNQGLFFEPIIRKAGPGSQLVIGRYTERVRDAISKIPEQYHPVVFKSKVVSRTHGCFKVDSQGNWYIKDVKSSSGTFLNHQRLSPASSLSKDTPLRDGDILQLGMDFRGGTEEIYRCVRMRIELNRSWKLKANSFNKEALQRLQNLQKLTTGIEEEDCSICLCKIKPCQAIFISPCAHSWHFRCVRRLVMLSYPQFVCPNCRSSCDLEASFESSDEEDESDVESEGDQLVDQLSVLMETSKDVDSHP
